# Results from the supplement of paper PMC4683952.
# The other results are listed elsewhere or left out. Cut-off read from the data, not from the text of the source: active = 2 or more and inactive = the rest. This data set is noisy: repeats of one test often differ as much as different tests do.
# System: Lgr5 (MarsCy1-Lgr5-EGFP, U2OS)
# Assay: cell-surface Lgr5 expression (SCi1 fluorescence, background-subtracted) relative to WT DMSO (fold of DMSO control); higher = more Lgr5 at the plasma membrane
# Settings: U2OS MarsCy1-Lgr5-EGFP stable; treatment time: overnight; library: ActiProbe-5K (TimTec); 25 µM
row,Compound,cell-surface Lgr5 expression
1,Brc1ccc2c(c1)sc1cc(Br)ccc12,inactive: 1.25
2,Nc1cc(-c2ccccc2)c2ccccc2n1,inactive: 1.1
3,c1ccc2cc(-n3cccc3)ccc2c1,inactive: 1.09
4,CC(=O)c1onc(C(N)=O)c1N,inactive: 0.952
5,c1ccc(N(c2ccccc2)c2nc(-n3ccnc3)nc(-n3ccnc3)n2)cc1,inactive: 1.05
6,Cc1cc(C)n(CNc2nc3c(s2)C(=O)CC(C)(C)C3)n1,inactive: 0.937
7,O=[N+]([O-])c1ccc2nc(CSc3nc4ccc(Br)cc4[nH]3)[nH]c2c1,inactive: 0.876
8,Cn1nc(C(=O)O)c(Br)c1[N+](=O)[O-],inactive: 0.96
9,O=C(NCc1ccco1)c1scc2c1OCCO2,inactive: 0.833
10,Nc1nc(-c2sc3nc4c(cc3c2N)CCCC4)nc(N2CCOCC2)n1,inactive: 1.51
11,COc1ccc(S(=O)(=O)[O-])c2ccccc12,inactive: 1.17
12,c1ccc(-c2nc(Sc3nc(-c4ccccc4)nc4ccccc34)c3ccccc3n2)cc1,inactive: 1.06
13,Cc1ccc(-c2nnc(S)n2/N=C\c2ccc(C(C)C)cc2)cc1,inactive: 1.32
14,Cc1ccc(C2C(C#N)=C(N)Oc3cc(C)oc(=O)c32)o1 (stereo not drawn),inactive: 0.971
15,S=C1COC(c2ccc(Br)cc2)N1c1ccccc1 (stereo not drawn),inactive: 1.24
16,Oc1cc(O)c2sc3nc(-c4ccccc4)ccc3c2n1,inactive: 1.12
17,S(CC12[C@@]([C@@H](CC2)CC1=O)(C)C)(=O)(=O)N,inactive: 1.16
18,Cc1[nH]c2ccc(F)cc2c(=O)c1SC(F)(F)C(F)F,inactive: 1.07
19,CN1c2cnc(N)nc2-c2sccc2S1(=O)=O,inactive: 1.5
20,Cc1sc(/N=C\c2ccc(Br)s2)c(C(N)=O)c1C,inactive: 1.59
21,COc1cc(OC)c(OC)cc1/C=N/n1c(S)nnc1-c1cc(OC)c(OC)c(OC)c1,inactive: 1.12
22,COC(=O)c1c(NC(=O)C(F)(F)F)sc2c1C(C(=O)OC)CC2 (stereo not drawn),inactive: 1.24

row,Compound,cell-surface Lgr5 expression
1,O=S(=O)(NCCCO)c1ccc2c(c1)Cc1cc(S(=O)(=O)NCCCO)ccc1-2,inactive: 1.05
2,C(=N/N=C(c1ccccc1)c1ccccc1)/c1ccc2c(c1)OCO2,inactive: 1.29
3,CCn1cc(Cn2nc(C)c(N)c2C)c(C)n1,inactive: 1.24
4,CC(C)(C)c1[nH]nc2c1C(c1ccc(Cl)s1)C(C#N)=C(N)O2 (stereo not drawn),inactive: 1.24
5,Cc1scc(CO)c1C,inactive: 1.29
6,c1(c(c(COCC)c(cc1C)C)C)/C=C(/C#N)C#N,inactive: 1.15
7,O=C(/C=C/n1c(=S)oc2ccccc21)c1ccccc1,inactive: 0.467
8,CCCOc1nccc2c1n(C)c(=O)n2C,inactive: 1.05
9,COC(=O)/C(C#N)=C/c1ccc([N+](=O)[O-])o1,inactive: 1.87
10,c1ccc(NC(/N=S(\c2ccccc2)c2ccccc2)=S)cc1,inactive: 1.44
11,Cn1c(=O)c2c(nc(N3CCCC3)n2C)n(C)c1=O,inactive: 0.968
12,CC1(C)Nc2sc3c(c2-c2nnnn21)CCCC3,inactive: 1.46
13,c1(/c(nc2ccccc2nc1C)C)=N\OCc1ccc(cc1)C,inactive: 0.996
14,CCN(CC)CCCNCC(=O)NC1(C)C2CCC(C2)C1(C)C (stereo not drawn),inactive: 1.54
15,CSc1nc2ccccc2[nH]c1=O,inactive: 1.06
16,CC1(C)Cc2ccccc2/C(=C/c2ccc3ccccc3n2)N1,inactive: 1.09
17,O=C(Cn1nc(C(F)(F)F)c(Cl)c1C1CC1)N1CCN2CCCC2C1 (stereo not drawn),inactive: 1.27
18,S=c1[nH]nc(-c2cccc(Br)c2)[nH]1,inactive: 1.16
19,COc1cc2c3c(ccc2c(OC)c1OC)-c1[nH]ncc1CC3,inactive: 0.895
20,FC(F)(F)c1nnc2ccc(N3CCCCCC3)nn12,inactive: 1.12
21,Cc1n[nH]c(C)c1Br,inactive: 1.23
22,O=[N+]([O-])c1ccc(F)c(/N=C\c2ccc([N+](=O)[O-])o2)c1,active: 2.23

row,Compound,cell-surface Lgr5 expression
1,Cc1ccc2c(c1)-c1c(ss/c1=N/c1cc(Cl)ccc1Cl)C(C)(C)N2,inactive: 1.13
2,O=C(NC1C2CC3CC(C2)CC1C3)c1ccc(=O)[nH]n1 (stereo not drawn),inactive: 1.16
3,Clc1ccc(OCc2cn3ccccc3n2)c2ncccc12,inactive: 1.12
4,O=S(=O)(c1ccc2c(c1)OCCO2)N1CCCCC1,inactive: 1.04
5,CC(C)(C)C1CCc2c(sc3c2C(=O)NC(c2ccco2)N3)C1 (stereo not drawn),inactive: 0.986
6,NC(=O)Cn1cc([N+](=O)[O-])cn1,inactive: 1.37
7,O=C(O)C1CSC(c2ccco2)N1 (stereo not drawn),inactive: 1.01
8,C1(=C(\C#N)C#N)/C(C2=CCCCC2)CCCC1 (stereo not drawn),inactive: 1.35
9,CC(C)(C)C1CC=C2[C@H](C1)[C@@H](c1ccsc1)C(C#N)=C(N)C2(C#N)C#N (stereo partly drawn),inactive: 1.3
10,Brc1ccc(/C=N\c2cccc3ccccc23)s1,inactive: 0.79
11,O=[N+]([O-])c1ccc(/C=N/N(CCO)C2=NS(=O)(=O)c3ccccc32)o1,inactive: 0.626
12,c1ccc(Sc2ncnc3c2oc2ccccc23)cc1,inactive: 1.19
13,COc1nsc(SC)c1C(N)=O,inactive: 0.894
14,N#Cc1sc2c(C#N)c(N)sc2c1N,inactive: 1.29
15,COc1ccc(C2=Nn3c(nnc3-c3ccccc3F)SC2)cc1,inactive: 1.3
16,N#CCCNNC1=NS(=O)(=O)c2ccccc21,inactive: 1.16
17,FC(F)(F)c1ccc2c(c1)nc1ccccn12,inactive: 0.94
18,COc1cc(Br)c(Br)cc1N,inactive: 1.08
19,Oc1[nH]nc2nc(C(F)(F)F)cc(C(F)(F)F)c12,inactive: 1.36
20,COc1cc(CC2CC(CO)=NO2)cc2c1OCO2 (stereo not drawn),inactive: 1.12
21,C(#Cc1ccc2oc3ccc(C#Cc4ccccc4)cc3c2c1)c1ccccc1,inactive: 1.12
22,CCOC(=O)c1c(C)n[n+]2c(C(=O)OCC)c(C)[n-]n12,inactive: 1.08

# Exported with tabs: part of the list above
row	Compound	cell-surface Lgr5 expression
19	Oc1[nH]nc2nc(C(F)(F)F)cc(C(F)(F)F)c12	inactive: 1.36
20	COc1cc(CC2CC(CO)=NO2)cc2c1OCO2 (stereo not drawn)	inactive: 1.12
21	C(#Cc1ccc2oc3ccc(C#Cc4ccccc4)cc3c2c1)c1ccccc1	inactive: 1.12
22	CCOC(=O)c1c(C)n[n+]2c(C(=O)OCC)c(C)[n-]n12	inactive: 1.08

# Remaining list, next part

row,Compound,cell-surface Lgr5 expression
1,CCCCSc1nc(=O)cc(C)[nH]1,inactive: 1.04
2,COc1cc(C2C=C(c3ccc4c(c3)OCO4)Nc3ncnn32)cc(OC)c1OC (stereo not drawn),inactive: 1.15
3,Cc1nnc(SCC(N)=O)s1,inactive: 1.23
4,Brc1ccc(/C=N\c2ccccn2)s1,inactive: 1.06
5,N#CC1=C(N)C(C#N)(C#N)C(c2cccs2)C2CCCC=C12 (stereo not drawn),inactive: 1.49
6,Nc1ccc2oc(-c3cc(Cl)ccc3Cl)nc2c1,inactive: 1.36
7,CS(=O)(=O)N1CCc2cc([N+](=O)[O-])ccc21,inactive: 1.23
8,CN1CCN(/C(=N/O)c2nonc2N)CC1,inactive: 1.25
9,c1ccc(CN(/N=c2/cc(-c3ccccc3)n(-c3ccccc3)cn2)c2ccccc2)cc1,inactive: 1.12
10,C/C(=N/O)C1C(=O)c2ccccc2C1=O,inactive: 1.1
11,Clc1nc2nonc2nc1Nc1ccc(Br)cc1,inactive: 1.02
12,CC1=NN(c2ccccc2)C(=S)/C1=C/Nc1ccc([N+](=O)[O-])cc1[N+](=O)[O-],inactive: 1.21
13,Oc1ccc(Br)cc1/C=N\c1nccs1,inactive: 0.873
14,Fc1cccc(Cl)c1-c1nnc2ccc(C(F)(F)F)cn12,inactive: 1.31
15,CC1(C)CN=C(N2CCN(CC(O)COc3ccc(OCC(O)CN4CCN(C5=NCC(C)(C)S5)CC4)cc3)CC2)S1 (stereo not drawn),inactive: 1.92
16,n1(nc(C)cc1C)C(C\C(=C(\Cl)Cl)Cl)=O,inactive: 1.19
17,Cc1nnc(SCC(=O)NC2CC3CCC2(C)C3(C)C)n1N (stereo not drawn),inactive: 1.05
18,N#Cc1c(SCC(N)=O)sc2c(O)cc(=O)[nH]c12,inactive: 1.37
19,CC1(C)Cc2c(sc3ncnc(N)c23)CO1,inactive: 1.11
20,O=[N+]([O-])c1ccc2[nH]c(=S)[nH]c2c1,inactive: 1.22
21,CCNc1nc(N2CCCC2)nc(N2CCCC2)n1,inactive: 1.6
22,CCNC(=S)NN1CCOCC1,inactive: 1.22

row,Compound,cell-surface Lgr5 expression
1,C/C(=N/O)c1ccc(Br)cc1,inactive: 1.05
2,Cc1c(C#N)c(N)n(CCCn2ccnc2)c1C,inactive: 1.26
3,Cc1nn2c3ccccc3nc2n1C,inactive: 1.03
4,O=C(/C=C\[O][Na])c1ccc2c(c1)OCO2,inactive: 1.17
5,NC1=NC2(CCCCC2)N(c2ccc(F)cc2)C(N)=N1,inactive: 1.36
6,COc1cccc(Oc2nonc2N)c1,inactive: 1.28
7,O=C(O)CCNC1CCS(=O)(=O)C1 (stereo not drawn),inactive: 1.28
8,Nc1nn(-c2ccccc2)c(=S)[nH]1,inactive: 0.997
9,Cc1cc(C(F)(F)F)n2ncnc2n1,inactive: 0.931
10,O=C(NCC1CCCO1)C(=O)N/N=C/c1c2ccccc2cc2ccccc12 (stereo not drawn),inactive: 0.964
11,CC1CCc2c(sc(/N=C\c3ccc(-c4cccs4)s3)c2C#N)C1 (stereo not drawn),inactive: 1.16
12,Cc1sc2ncnc(SCC(=O)O)c2c1C,inactive: 1.25
13,CCOC(=O)c1[nH]c(Cc2[nH]c(C(=O)OCC)c(C)c2CC)c(CC)c1C,inactive: 0.875
14,O=C([O-])/C=C\c1c[nH]c2ccccc12.[Na+],inactive: 1.24
15,O=C(O)c1cc(=O)c2cc(Br)ccc2o1,inactive: 1.28
16,Cc1cc(CO)c(C(=O)O)c(=O)[nH]1,inactive: 1.33
17,CCNc1nc(NC(C)(C)C)nc(N2CCCC2)n1,inactive: 1.87
18,CN(C)S(=O)(=O)NCC1CCCO1 (stereo not drawn),inactive: 1.09
19,CCN(CC)S(=O)(=O)C1CCS(=O)(=O)C1 (stereo not drawn),inactive: 1.44
20,Cn1cccc1/C=N\n1cnnc1,inactive: 1.92
